From the supplement of paper PMC8728848
Some of the results follow.

Assays:
Test in all cases: glycan array binding signal (z-score within array); higher = stronger binding
Settings in all cases: glycan notation: IUPAC condensed, linker removed
[1] = molecular target: Fuc(a1-2)Gal(b1-4)GlcNAc(b1-3)Gal(b1-4)GlcNAc(b1-3)Gal(b1-4)GlcNAc
Procedure, shortened: (§1)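 Negative Z-scores can be read as non-binding. The Z-score is calculated within each array and then averaged across arrays of one protein sequence at different concentrations or buffers and across linkers. Arrays, 3228 in all, were curated from the Consortium for Functional Glycomics database and kept only where the protein sequence was available.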

[2] = molecular target: Fuc(a1-2)Gal(b1-4)GlcNAc(b1-3)GalNAc
Procedure, shortened: as §1

[3] = molecular target: Fuc(a1-2)Gal(b1-4)GlcNAc(b1-3)[Fuc(a1-2)Gal(b1-4)GlcNAc(b1-6)]GalNAc
Procedure, shortened: as §1

[4] = molecular target: Fuc(a1-2)Gal(b1-4)GlcNAc(b1-3)[Fuc(a1-3)[Gal(b1-4)]GlcNAc(b1-6)]Gal(b1-4)Glc
Procedure, shortened: as §1

[5] = molecular target: Fuc(a1-2)Gal(b1-4)GlcNAc(b1-6)GalNAc
Procedure, shortened: as §1

[6] = molecular target: Fuc(a1-2)Gal(b1-4)GlcNAc6S
Procedure, shortened: as §1

[7] = molecular target: Fuc(a1-2)Gal(b1-4)[Fuc(a1-3)]GlcNAc
Procedure, shortened: as §1

[8] = molecular target: Fuc(a1-2)Gal(b1-4)[Fuc(a1-3)]GlcNAc(b1-2)Man(a1-3)[Fuc(a1-2)Gal(b1-4)[Fuc(a1-3)]GlcNAc(b1-2)Man(a1-6)]Man(b1-4)GlcNAc(b1-4)[Fuc(a1-6)]GlcNAc
Procedure, shortened: as §1

[9] = molecular target: Fuc(a1-2)Gal(b1-4)[Fuc(a1-3)]GlcNAc(b1-2)[Fuc(a1-2)Gal(b1-4)[Fuc(a1-3)]GlcNAc(b1-4)]Man(a1-3)[Fuc(a1-2)Gal(b1-4)[Fuc(a1-3)]GlcNAc(b1-2)Man(a1-6)]Man(b1-4)GlcNAc(b1-4)GlcNAc
Procedure, shortened: as §1

[10] = molecular target: Fuc(a1-2)Gal(b1-4)[Fuc(a1-3)]GlcNAc(b1-3)Gal(b1-4)[Fuc(a1-3)]GlcNAc
Procedure, shortened: as §1

[11] = molecular target: Fuc(a1-2)Gal(b1-4)[Fuc(a1-3)]GlcNAc(b1-3)Gal(b1-4)[Fuc(a1-3)]GlcNAc(b1-3)Gal(b1-4)[Fuc(a1-3)]GlcNAc
Procedure, shortened: as §1

[12] = molecular target: Fuc(a1-2)Gal(b1-4)[Fuc(a1-3)]GlcNAc(b1-3)GalNAc
Procedure, shortened: as §1

[13] = molecular target: Fuc(a1-2)Gal(b1-4)[Fuc(a1-3)]GlcNAc(b1-3)[Neu5Ac(a2-6)Gal(b1-4)GlcNAc(b1-6)]Gal(b1-4)Glc
Procedure, shortened: as §1

[14] = molecular target: Fuc(a1-2)Gal3S(b1-4)GlcNAc
Procedure, shortened: as §1

[15] = molecular target: Fuc(a1-2)Gal6S(b1-3)GlcNAc
Procedure, shortened: as §1

[16] = molecular target: Fuc(a1-2)Gal6S(b1-3)GlcNAc6S
Procedure, shortened: as §1

Fuc(a1-2)Gal6S(b1-4)Glc = molecular target: Fuc(a1-2)Gal6S(b1-4)Glc
Procedure, shortened: as §1

[17] = molecular target: Fuc(a1-2)Gal6S(b1-4)Glc6S
Procedure, shortened: as §1

Fuc(a1-2)[Gal(a1-3)]Gal = molecular target: Fuc(a1-2)[Gal(a1-3)]Gal
Procedure, shortened: as §1

[18] = molecular target: Fuc(a1-2)[Gal(a1-3)]Gal(b1-3)GalNAc
Procedure, shortened: as §1

[19] = molecular target: Fuc(a1-2)[Gal(a1-3)]Gal(b1-3)GalNAc(b1-3)Gal(a1-4)Gal(b1-4)Glc
Procedure, shortened: as §1

[20] = molecular target: Fuc(a1-2)[Gal(a1-3)]Gal(b1-3)GlcNAc
Procedure, shortened: as §1

[21] = molecular target: Fuc(a1-2)[Gal(a1-3)]Gal(b1-3)GlcNAc(b1-2)Man(a1-3)[Fuc(a1-2)[Gal(a1-3)]Gal(b1-3)GlcNAc(b1-2)Man(a1-6)]Man(b1-4)GlcNAc(b1-4)GlcNAc
Procedure, shortened: as §1

[22] = molecular target: Fuc(a1-2)[Gal(a1-3)]Gal(b1-3)GlcNAc(b1-2)Man(a1-3)[Fuc(a1-2)[Gal(a1-3)]Gal(b1-3)GlcNAc(b1-2)Man(a1-6)]Man(b1-4)GlcNAc(b1-4)[Fuc(a1-6)]GlcNAc
Procedure, shortened: as §1

[23] = molecular target: Fuc(a1-2)[Gal(a1-3)]Gal(b1-3)GlcNAc(b1-3)GalNAc
Procedure, shortened: as §1

[24] = molecular target: Fuc(a1-2)[Gal(a1-3)]Gal(b1-3)GlcNAc(b1-6)GalNAc
Procedure, shortened: as §1

[25] = molecular target: Fuc(a1-2)[Gal(a1-3)]Gal(b1-4)Glc
Procedure, shortened: as §1

[26] = molecular target: Fuc(a1-2)[Gal(a1-3)]Gal(b1-4)GlcNAc
Procedure, shortened: as §1

[27] = molecular target: Fuc(a1-2)[Gal(a1-3)]Gal(b1-4)GlcNAc(b1-2)Man
Procedure, shortened: as §1

[28] = molecular target: Fuc(a1-2)[Gal(a1-3)]Gal(b1-4)GlcNAc(b1-2)Man(a1-3)[Fuc(a1-2)[Gal(a1-3)]Gal(b1-4)GlcNAc(b1-2)Man(a1-6)]Man(b1-4)GlcNAc(b1-4)GlcNAc
Procedure, shortened: as §1

B1: PX14343G-pdi-535-24-535 (Parabacteroides distasonis) (protein)
chain: LDTVPKDQLAPSTTWQTEADAKGFIVGCYKDLLDGNTLLYLDCGSDIGYNNFPWEGFRPWGDGSLSSSNPGQILYDYKSIRKANTFLENVDKVTFSSDAVKANYVAQAKAIRAYKYFLMNWWYGGVPIISSYSSADEAKVERNTEQEVRDYIAKDLDEALAGIAEAPEARGYIAKGAVLAIKMREALYYGDWQKAKDAAKAIIDLKQYELDPDYTNLFKVSGVDSKEIILADQNIETLDGLGTIGQMYNNVDQGWSSIVPTQNLVDMYEMSDGLTKEESKTYDAKHPFANRDPRMAMTILYPGRDWRGDVLNTLDEKLQDGTVNKNFPTYTDNASKSALTWAKYLDPMDQYGDVWSSGACPIVFRYAEVLLTYAEAANELSGPSDEIYGYLNQIRQRVGMGEVDKAKYGTKDKLRELIRRERTVELAGEGLRRADIVRWQEDGKMLAEKVMNGDLLRVTGTINYGESEPTKRAEITGTAVIETRQFSSRNRYLPIPQTSMDKNPNLKQNPGY
[1]
  glycan array binding signal (z-score): 0.33
[2]
  glycan array binding signal (z-score): 0.446
[3]
  glycan array binding signal (z-score): -0.109
[4]
  glycan array binding signal (z-score): 0.439
[5]
  glycan array binding signal (z-score): 1.34
[6]
  glycan array binding signal (z-score): -0.509
[7]
  glycan array binding signal (z-score): -0.336
[8]
  glycan array binding signal (z-score): 0.038
[9]
  glycan array binding signal (z-score): 0.26
[10]
  glycan array binding signal (z-score): -0.758
[11]
  glycan array binding signal (z-score): -0.34
[12]
  glycan array binding signal (z-score): 0.541
[13]
  glycan array binding signal (z-score): 0.461
[14]
  glycan array binding signal (z-score): -0.388
[15]
  glycan array binding signal (z-score): -0.402
[16]
  glycan array binding signal (z-score): 0.336
Fuc(a1-2)Gal6S(b1-4)Glc
  glycan array binding signal (z-score): 0.412
[17]
  glycan array binding signal (z-score): -0.072
Fuc(a1-2)[Gal(a1-3)]Gal
  glycan array binding signal (z-score): 0.083
[18]
  glycan array binding signal (z-score): 0.187
[19]
  glycan array binding signal (z-score): -0.638
[20]
  glycan array binding signal (z-score): 0.064
[21]
  glycan array binding signal (z-score): -0.612
[22]
  glycan array binding signal (z-score): -0.242
[23]
  glycan array binding signal (z-score): -0.095
[24]
  glycan array binding signal (z-score): -0.246
[25]
  glycan array binding signal (z-score): 0.432
[26]
  glycan array binding signal (z-score): -0.577
[27]
  glycan array binding signal (z-score): -1.2
[28]
  glycan array binding signal (z-score): 2.43
